Measurements published in patent US11666549B2, “Regulation of cancer using natural compounds and/or diet” (UNIVERSITY OF FLORIDA RESEARCH FOUNDATION, INC., priority 2013, dated 2023).
“Also recorded” adds a separate entry of the source. At least one compound was matched to its structure with a doubt left.

Experiments:
[1] = system: Primary human GB stem cell lines; assay: Daily fold expansion, NP and TMZ in vitro; type: cell-based; details: TMZ 20 μM daily, 5-7 days
Procedure: FIG. 11: Daily fold expansion—Effect of NP and TMZ in vitro. Primary human GB stem cell lines were treated daily for 4 out of 5 days in culture TMZ alone or in combination with EGCG (8 μM), Curcumin (0.5 μM), sulforaphane (2.5 μM) or a combination of all three (NP). Cells were passed after 5-7 days and cell counts performed. […] The stars (*) are compared to control, # to TMZ alone and $ to the different combinations of TMZ with each of the individual natural products. 1 symbol, p<0.05, 3 symbols, p<0.001, 1-way ANOVA.
Standard of care [SOC] for many solid tissue cancers involves the use of chemotherapy, which for many advanced or high grade tumors provides marginal benefit. Patient derived hGB cells were grown in culture and treated daily with the conventional drug temozolomide [TMZ, 20 μM] only or in combination with the following NPs:
[4] a combination of all three NPs
After 5-7 days in culture cells were counted and the mean daily fold expansion calculated.

[2] = system: TMZ unresponsive hGB cells; assay: Subcutaneous xenograft of TMZ resistant hGB cells; type: in vivo, mouse; details: TMZ 5 mg/kg or mKD/NP
[3] = system: Survivin; assay: Survivin expression in vitro, flow cytometry; type: cell-based, human
[4] = system: high-grade gliomas such as GB; details: GB patients; cited from earlier work

## Cn1nnc2c(C(N)=O)ncn2c1=O [TMZ, temozolomide]
[1]
  mean daily fold expansion, TMZ alone: statistically significant effect on reducing the expansion of the tumor cells
[2]
  tumor progression, single treatments: no effect on tumor progression
[3]; TMZ 10 μM
  fraction of cells expressing Survivin, TMZ alone: statistically significant increase; also recorded: increased
[3]; TMZ 10 μM daily, 7 days
  Expression level of Survivin, TMZ alone: statistically significant increase; also recorded: increased
[4]
  increase in survival: 2-3 months
